Measured values published in the supplement of paper PMC10849652.
Some of the results follow.

Protein sequences, listed by entry. Tags and fused reporters are not part of them. Lines headed by an entry give the natural chain unless they say otherwise; changes in a name come on top.
UniProt O75391: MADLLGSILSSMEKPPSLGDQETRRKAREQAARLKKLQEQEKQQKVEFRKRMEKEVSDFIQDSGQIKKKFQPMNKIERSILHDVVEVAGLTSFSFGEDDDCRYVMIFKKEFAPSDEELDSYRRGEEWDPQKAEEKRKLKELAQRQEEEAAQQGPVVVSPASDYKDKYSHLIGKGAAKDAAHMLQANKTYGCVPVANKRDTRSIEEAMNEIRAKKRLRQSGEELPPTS
UniProt P62316, whole entry, looked up: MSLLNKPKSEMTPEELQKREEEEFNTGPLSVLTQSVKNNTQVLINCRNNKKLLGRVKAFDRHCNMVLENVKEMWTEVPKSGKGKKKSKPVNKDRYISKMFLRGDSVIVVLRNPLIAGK
UniProt O75643, whole entry, looked up: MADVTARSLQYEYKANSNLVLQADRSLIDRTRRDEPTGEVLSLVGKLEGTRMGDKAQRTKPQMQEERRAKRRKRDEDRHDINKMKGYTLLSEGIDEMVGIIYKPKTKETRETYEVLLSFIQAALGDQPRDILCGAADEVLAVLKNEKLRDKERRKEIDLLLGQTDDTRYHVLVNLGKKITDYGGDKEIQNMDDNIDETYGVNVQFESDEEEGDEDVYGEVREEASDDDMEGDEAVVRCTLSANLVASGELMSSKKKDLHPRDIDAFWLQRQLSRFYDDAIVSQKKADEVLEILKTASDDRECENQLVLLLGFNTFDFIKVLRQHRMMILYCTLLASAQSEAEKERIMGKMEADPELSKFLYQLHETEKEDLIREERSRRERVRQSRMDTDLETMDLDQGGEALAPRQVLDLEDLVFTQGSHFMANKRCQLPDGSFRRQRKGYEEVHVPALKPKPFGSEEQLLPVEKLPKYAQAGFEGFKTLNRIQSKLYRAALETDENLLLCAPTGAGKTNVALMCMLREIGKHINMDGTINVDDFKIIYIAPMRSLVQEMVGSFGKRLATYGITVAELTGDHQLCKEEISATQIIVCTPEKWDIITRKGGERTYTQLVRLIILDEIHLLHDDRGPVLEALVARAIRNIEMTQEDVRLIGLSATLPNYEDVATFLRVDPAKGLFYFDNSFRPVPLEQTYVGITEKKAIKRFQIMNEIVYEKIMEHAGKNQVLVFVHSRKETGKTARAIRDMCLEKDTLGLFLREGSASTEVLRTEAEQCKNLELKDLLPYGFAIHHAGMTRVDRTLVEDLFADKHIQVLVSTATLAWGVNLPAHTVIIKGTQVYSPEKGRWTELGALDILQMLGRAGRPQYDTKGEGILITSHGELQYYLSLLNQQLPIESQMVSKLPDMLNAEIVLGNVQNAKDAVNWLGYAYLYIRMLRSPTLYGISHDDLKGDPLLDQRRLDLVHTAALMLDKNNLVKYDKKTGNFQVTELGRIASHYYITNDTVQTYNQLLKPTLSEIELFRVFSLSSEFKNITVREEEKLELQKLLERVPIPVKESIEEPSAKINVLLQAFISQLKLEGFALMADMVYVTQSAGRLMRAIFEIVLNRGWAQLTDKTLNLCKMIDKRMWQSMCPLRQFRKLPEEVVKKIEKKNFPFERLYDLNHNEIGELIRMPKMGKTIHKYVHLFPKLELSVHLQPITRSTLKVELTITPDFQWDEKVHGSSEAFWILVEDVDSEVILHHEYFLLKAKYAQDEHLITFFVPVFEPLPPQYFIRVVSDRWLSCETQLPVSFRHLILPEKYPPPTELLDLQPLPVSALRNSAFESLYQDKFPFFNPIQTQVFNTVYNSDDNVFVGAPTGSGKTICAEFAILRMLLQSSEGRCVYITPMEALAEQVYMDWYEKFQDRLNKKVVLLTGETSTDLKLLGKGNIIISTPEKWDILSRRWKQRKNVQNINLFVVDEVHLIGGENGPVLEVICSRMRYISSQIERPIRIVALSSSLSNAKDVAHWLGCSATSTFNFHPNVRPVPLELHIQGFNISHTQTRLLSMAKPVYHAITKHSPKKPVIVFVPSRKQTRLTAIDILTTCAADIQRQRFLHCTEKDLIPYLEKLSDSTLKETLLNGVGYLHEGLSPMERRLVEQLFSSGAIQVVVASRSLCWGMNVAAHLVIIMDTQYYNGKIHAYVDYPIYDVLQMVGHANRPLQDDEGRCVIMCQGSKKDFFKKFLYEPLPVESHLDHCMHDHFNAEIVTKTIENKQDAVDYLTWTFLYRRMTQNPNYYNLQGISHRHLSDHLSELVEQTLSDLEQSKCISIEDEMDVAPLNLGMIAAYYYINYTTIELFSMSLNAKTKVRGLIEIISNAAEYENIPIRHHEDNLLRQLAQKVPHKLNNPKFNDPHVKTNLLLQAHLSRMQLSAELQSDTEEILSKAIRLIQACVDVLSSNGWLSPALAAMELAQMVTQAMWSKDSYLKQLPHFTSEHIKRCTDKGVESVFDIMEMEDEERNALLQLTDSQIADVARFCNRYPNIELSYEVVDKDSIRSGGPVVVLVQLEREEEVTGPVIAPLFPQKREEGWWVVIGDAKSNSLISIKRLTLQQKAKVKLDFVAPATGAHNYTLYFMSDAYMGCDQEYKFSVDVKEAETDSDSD
UniProt Q96SB8: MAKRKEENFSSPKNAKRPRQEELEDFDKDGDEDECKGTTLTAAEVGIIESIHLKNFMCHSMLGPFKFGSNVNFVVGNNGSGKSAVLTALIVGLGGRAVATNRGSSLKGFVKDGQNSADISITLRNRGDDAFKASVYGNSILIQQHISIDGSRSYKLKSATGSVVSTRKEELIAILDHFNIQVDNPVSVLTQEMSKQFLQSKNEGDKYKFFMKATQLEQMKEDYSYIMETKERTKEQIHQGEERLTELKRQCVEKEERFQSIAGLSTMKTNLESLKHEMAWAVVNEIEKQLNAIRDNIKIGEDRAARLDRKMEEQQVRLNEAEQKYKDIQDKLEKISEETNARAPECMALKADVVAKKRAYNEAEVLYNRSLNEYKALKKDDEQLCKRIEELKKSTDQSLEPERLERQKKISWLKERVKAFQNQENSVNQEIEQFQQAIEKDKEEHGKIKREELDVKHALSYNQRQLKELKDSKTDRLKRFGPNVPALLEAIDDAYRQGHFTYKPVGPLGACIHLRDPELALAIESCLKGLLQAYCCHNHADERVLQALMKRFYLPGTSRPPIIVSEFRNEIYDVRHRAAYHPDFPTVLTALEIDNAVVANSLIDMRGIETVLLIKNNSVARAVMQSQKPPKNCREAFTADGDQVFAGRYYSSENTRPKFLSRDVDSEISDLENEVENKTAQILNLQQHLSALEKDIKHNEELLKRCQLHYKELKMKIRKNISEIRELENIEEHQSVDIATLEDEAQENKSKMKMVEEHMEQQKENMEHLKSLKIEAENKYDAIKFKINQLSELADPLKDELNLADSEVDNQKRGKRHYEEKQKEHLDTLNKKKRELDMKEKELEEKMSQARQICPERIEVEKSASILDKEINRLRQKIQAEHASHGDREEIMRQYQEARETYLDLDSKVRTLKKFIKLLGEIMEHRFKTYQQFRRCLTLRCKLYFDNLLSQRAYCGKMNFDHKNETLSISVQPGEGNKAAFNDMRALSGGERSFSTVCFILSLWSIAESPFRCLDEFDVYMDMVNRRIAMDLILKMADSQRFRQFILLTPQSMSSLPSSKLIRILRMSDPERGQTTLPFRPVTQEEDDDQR
UniProt Q92922, whole entry, looked up: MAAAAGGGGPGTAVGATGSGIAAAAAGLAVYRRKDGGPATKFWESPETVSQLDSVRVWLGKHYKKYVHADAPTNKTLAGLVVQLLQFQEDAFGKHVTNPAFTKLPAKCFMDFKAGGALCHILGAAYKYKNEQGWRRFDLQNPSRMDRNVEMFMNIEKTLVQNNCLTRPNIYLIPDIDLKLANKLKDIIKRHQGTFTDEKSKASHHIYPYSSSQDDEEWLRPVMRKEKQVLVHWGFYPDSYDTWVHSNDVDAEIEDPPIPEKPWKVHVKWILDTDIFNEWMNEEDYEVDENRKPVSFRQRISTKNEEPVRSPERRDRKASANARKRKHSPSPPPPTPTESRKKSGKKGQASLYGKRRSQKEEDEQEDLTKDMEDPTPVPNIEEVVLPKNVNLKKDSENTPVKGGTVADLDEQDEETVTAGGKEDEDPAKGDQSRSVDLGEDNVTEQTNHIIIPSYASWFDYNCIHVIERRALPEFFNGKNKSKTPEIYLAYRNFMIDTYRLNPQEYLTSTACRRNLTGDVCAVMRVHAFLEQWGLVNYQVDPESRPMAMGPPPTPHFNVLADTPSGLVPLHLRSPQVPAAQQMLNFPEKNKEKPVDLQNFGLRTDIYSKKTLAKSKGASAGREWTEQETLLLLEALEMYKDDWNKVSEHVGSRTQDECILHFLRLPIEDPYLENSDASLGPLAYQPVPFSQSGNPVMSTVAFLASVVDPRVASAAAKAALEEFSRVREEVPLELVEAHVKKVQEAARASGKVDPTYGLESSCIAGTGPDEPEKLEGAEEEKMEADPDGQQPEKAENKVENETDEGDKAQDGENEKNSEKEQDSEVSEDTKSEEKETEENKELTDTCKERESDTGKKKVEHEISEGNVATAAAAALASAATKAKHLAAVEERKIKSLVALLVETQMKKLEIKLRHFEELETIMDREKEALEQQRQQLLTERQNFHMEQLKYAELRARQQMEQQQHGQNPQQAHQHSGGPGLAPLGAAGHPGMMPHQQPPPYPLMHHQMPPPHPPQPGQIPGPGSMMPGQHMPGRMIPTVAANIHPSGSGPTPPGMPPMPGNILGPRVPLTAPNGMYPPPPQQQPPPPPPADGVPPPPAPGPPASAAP

compound: c1cn2cc(-c3ccc4cn[nH]c4c3)nc(Nc3ccc(N4CCOCC4)cc3)c2n1 [entospletinib]; test: log2 fold change, soluble protein after heating vs DMSO (PISA); higher = thermal stabilisation; K562 cells, 10 uM, 30 min; active = over 0.2 and 3.5 SD of the protein, either way, in both replicates (recomputed)
Procedure, shortened: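 K562 cells (2×10^6 cells/mL) were treated with 10 μM compound for 30 min, and aliquots were heated for 3 min over 48°C-58°C. Pooled aliquots were extracted in PBS with 0.5% NP-40 at 4°C, and the supernatant after 21,000xg for 90 min was measured by TMTpro 16plex LC-MS/MS with channel sums equalised. Reported thermal stability, relative to control samples and from duplicates, is a log2 fold change.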

log2 fold change, inactive:
SPAG7 (UniProt O75391) -0.007
SNRPD2 (UniProt P62316) -0.019
SNRNP200 (UniProt O75643) 0.092
SMC6 isoform 2 (UniProt Q96SB8) 0.074
SMARCC1 (UniProt Q92922) -0.045
